For experiment [1], the target named is T1, GST-fused STAMBPL1 N-terminus (1-140 aa) (UniProt Q96FJ0).
T1 sequence: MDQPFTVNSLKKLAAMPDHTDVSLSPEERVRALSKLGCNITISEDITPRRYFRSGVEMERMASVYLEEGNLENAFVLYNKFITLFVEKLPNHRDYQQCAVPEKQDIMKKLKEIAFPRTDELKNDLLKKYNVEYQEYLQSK
The experiment can be described thus: pull-down; HEK293T co-transfected with pEBG-STAMBPL1-GST (full-length or truncated) and pCDH-FOXO1-notag, 48 hr; lysates incubated with Glutathione Sepharose 4B overnight at 4°C; western blot. Background: In western blotting, separated proteins are transferred to a membrane and probed.

Chains of the proteins cited; added tags and fusions are not shown. Lines headed by an entry give the natural chain unless they say otherwise; changes in a name come on top. Residues count along the entry.
UniProt Q12778: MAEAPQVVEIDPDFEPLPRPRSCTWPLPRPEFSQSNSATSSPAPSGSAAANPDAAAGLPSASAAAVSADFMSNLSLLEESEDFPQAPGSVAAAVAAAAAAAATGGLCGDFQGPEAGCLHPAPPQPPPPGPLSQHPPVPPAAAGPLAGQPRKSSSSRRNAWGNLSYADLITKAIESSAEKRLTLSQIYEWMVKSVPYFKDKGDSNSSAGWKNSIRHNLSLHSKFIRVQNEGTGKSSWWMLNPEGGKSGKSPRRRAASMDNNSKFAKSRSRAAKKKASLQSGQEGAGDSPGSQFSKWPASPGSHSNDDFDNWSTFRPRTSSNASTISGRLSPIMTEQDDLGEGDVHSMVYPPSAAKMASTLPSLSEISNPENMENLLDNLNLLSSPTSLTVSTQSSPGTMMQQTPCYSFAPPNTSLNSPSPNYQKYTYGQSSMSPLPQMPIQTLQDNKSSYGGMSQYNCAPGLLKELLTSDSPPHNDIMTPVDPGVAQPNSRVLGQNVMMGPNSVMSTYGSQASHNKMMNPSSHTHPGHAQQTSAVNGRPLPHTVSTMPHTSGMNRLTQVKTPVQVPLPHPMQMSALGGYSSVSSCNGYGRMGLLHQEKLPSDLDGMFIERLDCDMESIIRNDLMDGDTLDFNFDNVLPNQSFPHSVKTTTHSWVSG
FOXO1 (250-596 aa)-3xFlag: residues 250-596 of Q12778

Experiment [2] addresses FOXO1 (endogenous) (human (endogenous in HCC1937)) (UniProt Q12778). The experiment can be described thus: co-IP; endogenous proteins; HCC1937 cell lysate incubated with anti-FOXO1 antibody or rabbit IgG, then protein A/G magnetic beads; western blot for STAMBPL1.
The target of experiment [3] is FOXO1 (250-596 aa)-3xFlag (UniProt Q12778). The experiment in a line: co-IP; HEK293T co-transfected with pCDH-FOXO1-3×Flag (full-length or truncated) and pEBG-STAMBPL1-GST, 48 hr; lysates incubated with anti-Flag magnetic beads overnight at 4°C; western blot.

Results are given in words; binding and its absence hold for the method and conditions named. In cells and extracts the contact can be indirect. Some binding calls cover weakened binding; strength is not graded here. Where a sequence is shown, tags or fusion partners need not be part of it.

Consider “FOXO1 without tag (pCDH-FOXO1-notag) (from UniProt Q12778 1-655)”, for which, in experiment [1], the binding entry is given as “binds”.

B1: STAMBPL1 (endogenous) (protein, UniProt Q96FJ0 1-436)
chain: MDQPFTVNSLKKLAAMPDHTDVSLSPEERVRALSKLGCNITISEDITPRRYFRSGVEMERMASVYLEEGNLENAFVLYNKFITLFVEKLPNHRDYQQCAVPEKQDIMKKLKEIAFPRTDELKNDLLKKYNVEYQEYLQSKNKYKAEILKKLEHQRLIEAERKRIAQMRQQQLESEQFLFFEDQLKKQELARGQMRSQQTSGLSEQIDGSALSCFSTHQNNSLLNVFADQPNKSDATNYASHSPPVNRALTPAATLSAVQNLVVEGLRCVVLPEDLCHKFLQLAESNTVRGIETCGILCGKLTHNEFTITHVIVPKQSAGPDYCDMENVEELFNVQDQHDLLTLGWIHTHPTQTAFLSSVDLHTHCSYQLMLPEAIAIVCSPKHKDTGIFRLTNAGMLEVSACKKKGFHPHTKEPRLFSICKHVLVKDIKIIVLDLR
On to B1, for which, in experiment [2], the binding entry is “binds”.

B2: STAMBPL1-GST (pEBG-STAMBPL1-GST) (protein, UniProt Q96FJ0 1-436)
chain: MDQPFTVNSLKKLAAMPDHTDVSLSPEERVRALSKLGCNITISEDITPRRYFRSGVEMERMASVYLEEGNLENAFVLYNKFITLFVEKLPNHRDYQQCAVPEKQDIMKKLKEIAFPRTDELKNDLLKKYNVEYQEYLQSKNKYKAEILKKLEHQRLIEAERKRIAQMRQQQLESEQFLFFEDQLKKQELARGQMRSQQTSGLSEQIDGSALSCFSTHQNNSLLNVFADQPNKSDATNYASHSPPVNRALTPAATLSAVQNLVVEGLRCVVLPEDLCHKFLQLAESNTVRGIETCGILCGKLTHNEFTITHVIVPKQSAGPDYCDMENVEELFNVQDQHDLLTLGWIHTHPTQTAFLSSVDLHTHCSYQLMLPEAIAIVCSPKHKDTGIFRLTNAGMLEVSACKKKGFHPHTKEPRLFSICKHVLVKDIKIIVLDLR
Consider B2, for which the binding result in experiment [3] is “binds”.

The values are drawn from paper PMC11984952.
